About 610 (0.16%) of roughly 390,000 compounds were called active. Inconclusive means that the source gave no clear call. Such entries were picked first, then a sample of the others. The call rests on the fitted dose curve; in most records, active means well fitted inhibition curve with a large enough effect; inconclusive means small, poorly fitted or top-dose-only effect, or effect the other way, or another doubt; inactive means no such curve, though single readings can be large or run the other way. Where the call is inconclusive, the potency comes from a doubtful curve fit.
assay: Nrf2 qHTS screen for inhibitors: counterscreen for cytotoxicity; details: A549 ARE-Fluc cells, CellTiter-Fluor viability, 18-24 h; series mostly up to 46 µM
In short: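 A549 ARE_Fluc cells in 5% FBS OPTI-MEM were exposed to compounds in concentration-response for 18-24 h at 37 deg C. Viability was read by CellTiter-Fluor fluorescence (Ex 405/Em 525) after 30 min, before the luciferase read.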
Potency means the concentration at half of the fitted maximal effect.

SMILES	Potency
O=C(O)c1ccc2c3c(ncnc13)-c1ccccc1C2=O	active: 3.26 µM
COc1ccc(OC)c(CNC(=O)CSc2c3c(nc4cc(Cl)ccc24)CCCC3)c1	inactive
COc1cccc(N(CC(=O)N2CCN(C)CC2)S(=O)(=O)c2ccc(C)cc2)c1	inconclusive: 6.51 µM [activator, partial curve, poor fit]
O=C(CN1C(=O)CCSc2ccccc21)Nc1ccc(C(F)(F)F)cc1	inactive
COc1ccc(OC)c(NC(=O)Cn2c(=O)cc(C)c3c(C)nn(-c4cccc(Cl)c4C)c32)c1	inconclusive: 14.6 µM [falling, single point]
O=C(OCc1nc2ccccc2s1)c1ccc(Br)s1	inconclusive: 0.355 µM [activator, partial curve, poor fit]
Cc1ccc(Nc2cc(C)nn2-c2nc(C)cc(=O)[nH]2)cc1	active: 12.6 µM
CCN(CC)C(=O)[C@H]1C[C@H](CC(=O)NC/C=C(\C)CCC=C(C)C)C(=O)N2CCc3c([nH]c4cc(-c5ccco5)ccc34)[C@]12C	inconclusive: 16.4 µM [falling, partial curve, poor fit]
Nc1ccc(Oc2ccc3c(c2)OCO3)cc1	inconclusive: 29.1 µM [falling, single point]
Cc1ccc(/C=N/Nc2ccnc3cc(Cl)ccc23)c(C)c1	inconclusive: 20.6 µM [falling, single point]
COc1ccc(S(=O)(=O)N2c3ccccc3OCC2c2ccccc2)cc1 (stereo unspecified)	inconclusive: 29.1 µM [falling, single point]
Cc1c(Cl)cccc1-c1ccc(/C=C(\C#N)c2nc3ccccc3[nH]2)o1	inconclusive: 32.6 µM [falling, partial curve, poor fit]
S=c1[nH]nc(-c2ccc3ccccc3n2)n1-c1ccccc1Cl	inconclusive: 2.31 µM [falling, single point]
CC(=O)c1ccc(NC2=C(N3CCOCC3)C(=O)c3ccccc3C2=O)cc1	inconclusive: 29.1 µM [falling, single point]
O=C(Nc1cccc(Cl)c1)c1cc(N=Nc2ccc([N+](=O)[O-])cc2Cl)ccc1O	inconclusive: 2.59 µM [falling, full curve]
Cc1cccc(C2N=C(N)Nc3nc4ccccc4n32)c1 (stereo unspecified)	inactive
CCOc1ccc(Nc2oc(-c3cccc(Cl)c3)nc2C#N)cc1	inconclusive: 20.6 µM [falling, single point]
O=C(Nc1ccc2nc(SCC(=O)N3CCCc4ccccc43)sc2c1)c1ccc(Cl)cc1	inconclusive: 6.51 µM [falling, partial curve, poor fit]
O=C(/C=C/c1ccc([N+](=O)[O-])o1)NNC(=O)c1ccc(F)cc1	active: 14.6 µM
O=C(OCC(F)(F)F)c1cccc(COc2ccc3ccccc3c2)c1	inactive
CN1C2CCC1/C(=C/c1cccn1C)C(=O)/C2=C\c1cccn1C	inconclusive: 20.6 µM [falling, single point]

SMILES	Potency
COc1ccc(C(=O)Nc2nc3n(n2)C(c2ccc(Cl)cc2)C=C(c2ccccc2)N3)cc1OC (stereo unspecified)	inconclusive: 9.2 µM [activator, partial curve]
Cc1ccc([N+](=O)[O-])cc1N=Nc1c(-c2ccc([N+](=O)[O-])cc2)[nH]n(C(N)=S)c1=O	inconclusive: 9.2 µM [falling, partial curve]
Cc1nc(S/C(=C/c2ccc(-c3cc(Cl)ccc3C)o2)C(=O)O)n[nH]1	inconclusive: 29.1 µM [falling, single point]
Cc1cc(=O)n(CNC(=O)c2ccccc2)c(=S)[nH]1	inconclusive: 6.51 µM [activator, single point]
COc1cccc(NC(=O)c2ccnc(N3CCC(C(=O)NCc4ccccc4OC)CC3)c2)c1	inactive
CCOC(=O)c1c(NC(=O)CSc2nnnn2-c2ccccc2)sc2c1CCC(C)C2 (stereo unspecified)	inconclusive: 18.4 µM [activator, partial curve, poor fit]
COC(=O)c1c(N2C(=O)[C@H]3[C@@H](C2=O)[C@]2(C(=O)Nc4c2ccc(C)c4C)N2CCC[C@@H]32)sc(C)c1C	inactive
CC(C)CCNC(=O)Cn1c(-c2cccs2)cc2cc(F)ccc21	inactive
Cc1cc(Br)ccc1NC(=O)c1sc2nc3n(c(=O)c2c1C)CCCC3	inconclusive: 29.1 µM [activator, single point]
CCOC(=O)COc1ccc2ccccc2c1/C=C/[N+](=O)[O-]	inconclusive: 29.1 µM [falling, single point]
Cc1ccnc(NC(=O)Cc2ccc(-c3ccccc3)cc2)c1	inconclusive: 8.2 µM [falling, partial curve]
CC(C)Cc1nc2oc3c(N4CCN(CCO)CC4)ncnc3c2c2c1CCCC2	inconclusive: 16.4 µM [falling, single point]
Cc1cc(/C=C2/SC(=S)N(c3ccc([N+](=O)[O-])cc3)C2=O)c(C)n1-c1cccnc1	inconclusive: 16.4 µM [falling, single point]
Cc1ccc(OCCn2cc(/C(N)=N/O)c3ccccc32)cc1C	inconclusive: 9.2 µM [activator, partial curve, poor fit]
CC(C(=O)N1CCN(c2ccc(Cl)cc2)CC1)c1ncc(C(F)(F)F)cc1Cl (stereo unspecified)	inconclusive: 29.1 µM [falling, single point]
O=C(Nc1cccc(-c2cn3ccccc3n2)c1)c1cccc(Cl)c1	inconclusive: 32.6 µM [falling, partial curve, poor fit]
O=C(CN1C(=O)C2(OCCO2)c2cc(Br)ccc21)NO	inconclusive: 11.6 µM [falling, partial curve]
COc1ccc(CCNCC(=O)Nc2ccc(OC(F)(F)F)cc2)cc1OC	inconclusive: 14.6 µM [activator, partial curve, poor fit]
COc1nnc(-c2ccc(C)cc2)c2ccccc12	inactive
CS(=O)CSc1nc2c(cc1C#N)CCCC2 (stereo unspecified)	inconclusive: 23.1 µM [activator, partial curve, poor fit]

In a second layout: results already given
Cc1nc(S/C(=C/c2ccc(-c3cc(Cl)ccc3C)o2)C(=O)O)n[nH]1
  Potency: inconclusive: 29.1 µM [falling, single point]
O=C(Nc1cccc(-c2cn3ccccc3n2)c1)c1cccc(Cl)c1
  Potency: inconclusive: 32.6 µM [falling, partial curve, poor fit]
